Screening data, single-dose tests

By UniProt entry, the sequences of proteins in these tests, tags left out. Residues count along the entry.
UniProt A4I591, 1-473: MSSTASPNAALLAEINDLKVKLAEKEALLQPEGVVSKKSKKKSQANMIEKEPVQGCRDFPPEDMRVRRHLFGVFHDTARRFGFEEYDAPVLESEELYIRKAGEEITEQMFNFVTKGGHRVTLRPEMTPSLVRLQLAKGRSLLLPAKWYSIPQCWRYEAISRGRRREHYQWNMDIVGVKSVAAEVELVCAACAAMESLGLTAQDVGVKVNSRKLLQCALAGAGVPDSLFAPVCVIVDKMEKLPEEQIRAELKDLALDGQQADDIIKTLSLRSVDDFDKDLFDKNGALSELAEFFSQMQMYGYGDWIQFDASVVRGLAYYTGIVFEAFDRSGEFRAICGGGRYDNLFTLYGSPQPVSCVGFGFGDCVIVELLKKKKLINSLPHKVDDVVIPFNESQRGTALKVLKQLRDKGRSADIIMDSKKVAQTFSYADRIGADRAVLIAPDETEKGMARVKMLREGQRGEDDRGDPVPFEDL
UniProt Q4DA54, 1-478: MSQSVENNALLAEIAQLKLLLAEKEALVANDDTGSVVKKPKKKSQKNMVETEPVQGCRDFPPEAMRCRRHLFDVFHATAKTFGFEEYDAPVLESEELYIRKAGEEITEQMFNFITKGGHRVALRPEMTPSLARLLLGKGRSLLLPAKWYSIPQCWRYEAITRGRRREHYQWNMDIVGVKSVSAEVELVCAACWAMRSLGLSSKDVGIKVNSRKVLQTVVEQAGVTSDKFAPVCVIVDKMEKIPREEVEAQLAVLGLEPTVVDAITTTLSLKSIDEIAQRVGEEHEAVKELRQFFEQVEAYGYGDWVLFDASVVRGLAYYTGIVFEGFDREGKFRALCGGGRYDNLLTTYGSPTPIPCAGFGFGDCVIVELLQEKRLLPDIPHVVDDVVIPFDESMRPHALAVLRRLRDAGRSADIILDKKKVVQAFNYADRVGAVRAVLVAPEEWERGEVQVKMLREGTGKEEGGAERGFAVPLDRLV
UniProt Q8IDJ8, 1-583: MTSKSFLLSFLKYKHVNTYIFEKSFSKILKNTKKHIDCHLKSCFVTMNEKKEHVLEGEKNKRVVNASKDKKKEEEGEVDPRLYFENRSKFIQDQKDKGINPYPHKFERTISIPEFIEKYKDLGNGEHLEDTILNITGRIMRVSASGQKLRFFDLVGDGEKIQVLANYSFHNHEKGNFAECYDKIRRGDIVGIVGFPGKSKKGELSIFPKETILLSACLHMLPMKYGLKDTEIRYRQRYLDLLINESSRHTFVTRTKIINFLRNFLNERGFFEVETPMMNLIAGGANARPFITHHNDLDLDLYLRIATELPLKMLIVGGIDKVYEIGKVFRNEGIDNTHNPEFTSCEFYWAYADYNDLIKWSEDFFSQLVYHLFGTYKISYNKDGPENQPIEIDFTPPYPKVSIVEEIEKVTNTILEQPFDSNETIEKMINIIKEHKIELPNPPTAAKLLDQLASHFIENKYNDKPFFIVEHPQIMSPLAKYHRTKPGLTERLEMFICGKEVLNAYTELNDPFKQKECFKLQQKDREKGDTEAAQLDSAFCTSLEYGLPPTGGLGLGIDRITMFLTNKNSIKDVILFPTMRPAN

Data taken from ChEMBL document CHEMBL3988442, “University of Dundee, Small-Polar-MMV Screening Library” (2021).

LiHisRS: 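Enzyme assay of histidyl-tRNA synthetase; the read-out is not stated. Target: Histidine-tRNA ligase, Leishmania infantum (UniProt A4I591). Tested at 30 µM. Higher reads as stronger inhibition (inferred: compounds with an IC50 in retests scored well above the rest). The assay is labelled LdHisRS but filed under L. infantum. About 69,000 compounds were tested under these conditions; 0.6% (about 410) showed 50% or more at least once.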
TcHisRS: 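Enzyme assay of histidyl-tRNA synthetase; the read-out is not stated. Target: Histidine-tRNA ligase, Trypanosoma cruzi CL Brener (UniProt Q4DA54). Tested at 30 µM. Direction is inferred from retests: higher values go with stronger inhibition. About 69,000 compounds were tested under these conditions; 0.045% (about 31) showed 50% or more at least once.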
PfKRS1: 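Enzyme assay of the cytosolic lysyl-tRNA synthetase in 384-well plates, read by luminescence. Target: Lysine-tRNA ligase, Plasmodium falciparum 3D7 (UniProt Q8IDJ8). Compounds at 30 µM. Direction is inferred from only a few compounds that gave an IC50; most scored high, so higher reads as stronger inhibition. Of about 69,000 compounds tested this way, about 49 (0.071%) reached 50% or more in at least one test.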
Leishmania in macrophages: 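Cell assay of Leishmania donovani living inside macrophages; the read-out is not stated. Tested at 30 µM. Higher reads as stronger inhibition (inferred: compounds with an IC50 in retests scored well above the rest). Of about 69,000 compounds tested this way, about 1,000 (1.5%) reached 50% or more in at least one test.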

Results are given as percent effect.
The record does not define 0% and 100%; most values in the screen are far below 50% and negative numbers occur (in some assays of this library far below -100).
The compounds are a random part of those screened.
Two or more numbers in one place are separate tests of the same structure; such repeats can differ widely.
A dash means the value is not listed here; it may have been measured.

structure	LiHisRS	TcHisRS	PfKRS1	Leishmania in macrophages
Cc1cc(C)c2c(OCC(=O)N(C)CC(=O)NC(C)C)nn(C)c2n1	8.163	6.154	-0.5568	8.805
[H][C@]12CN(c3cnccn3)C[C@@]1(C(=O)O)CN(C1CCCC1)C2	-	-	-	13.83
O=C(Cc1cccs1)N1CCn2cc(Cn3cccn3)nc2C1.O=C(O)C(F)(F)F	-	-	-	15.49
CCc1noc(CN2CCC(c3ccnn3CCO)CC2)n1	8.929	5.187	1.701	27.71
CN(C)C(=O)CN1C(=O)CCC12CCN(Cc1ccc(F)cc1)CC2	24.39	12.03	7.536	-
Cc1ccccc1CN(C)C(C(N)=O)c1ccccc1 (configuration not stated)	14.81	-3.067	-0.6891	21.24
CCN(CC)S(=O)(=O)N(Cc1cccc(C)c1)Cc1ccccn1	10.2	-27.69	-3.803	12.91
CC(C)CN1Cc2c(C(=O)NC3CC3)ncn2-c2ccccc2S1(=O)=O	-2.941	-2.956	-2.647	34.46
O=C(O)C(F)(F)F.O=C(O)C(F)(F)F.[H][C@]12OCCC[C@]1([H])N(C(=O)c1cccc(C)n1)C[C@H]2OCc1cccnc1	-	-	-	22.57
c1cnc(OCc2nnc3n2CCN(CC2CC2)C3)nc1	13.73	-1.639	-1.591	6.996
c1csc(CN2CCc3ncnc(C4CCOC4)c3CC2)c1 (configuration not stated)	8.333	3.483	0.7421	-
O=C(C1CC1)N1CCCC(c2nc(O)cc(-c3ccncc3)n2)C1 (configuration not stated)	11.46	3.191	4.84	16.85
COC1CCN(C(=O)Cc2csc(-c3ccccc3)n2)CC1	12.5	8.284	1.976	9.77
Cc1occc(=O)c1OCC(=O)N1CCN(c2ccccc2)CC1	-13.16	3.659	4.927	16.32 and 29.69
CN(C)CCCn1cnc2cc(NC(=O)c3n[nH]c4c3CCC4)ccc21	12.09	7.216	-2.466	7.457
CNC(=O)[C@@H](c1ccccc1F)N1CCC[C@H]1C(=O)NC1CCCC1.Cl	-	-	-	16.43
COCc1nc(C(=O)NS(=O)(=O)c2cc(F)ccc2F)cs1	0	1.527	-6.002	4.821
Cc1cc(C)cc(OCCCn2nc3ccccn3c2=O)c1	18.68	9.278	1.426	15.11
Cc1ccc(CN(C)C(=O)CN2CCCC2c2cnn(C)c2)o1 (configuration not stated)	-6.849	14.78	-0.04925	12.8
CCn1cnnc1CNC(=O)N(C)Cc1ccc2c(c1)OCO2	10.53	0.2865	0.7852	9.501
CN(C)C(=O)N1CCN(Cc2ccc3occc3c2)[C@H]2CS(=O)(=O)C[C@H]21	22.22	-2.041	3.766	-
Cc1ccc(-c2cc(CN3CCOC(Cn4cncn4)C3)on2)cc1 (configuration not stated)	12.5	6.464	4.779	-3.348
O=c1cc(-c2ccncc2)nc(-c2ccc(CN3CC[C@H](O)C3)cc2)[nH]1	8.333	3.352	6.518	23.49
CC(C)(C)CC(=O)N1CC[C@@H](CC(=O)O)[C@@H](CCN2CCCCC2)C1	19.44	14.85	4.513	-8.231
COC(=O)c1ccc(CN2CCN(Cc3nc(C)no3)CC2)s1	9.574	6.061	2.487	-21.11
O=C(C1CC(c2cccc(F)c2)=NO1)N1CCc2ccccc21 (configuration not stated)	12.39	-8.929	6.848	19.03
Cc1ccc(N2CCC3(CC2)CC(OCC(C)C)C3)nn1.O=C(O)C(F)(F)F	-	-	-	-0.9434
Cc1noc(C)c1-c1ccc(C2CCCN2C(=O)c2cccnc2)nc1 (configuration not stated)	24.21	3.731	1.697	1.565 and 2.285
CC(C)C(=O)N1CCCC2(CCCN2Cc2cccnc2)C1 (configuration not stated)	5.263	8.046	4.54	9.192
CN(C)CCn1nc(C2CCN(Cc3ccccc3)C2)c2cccnc21 (configuration not stated)	22.82	7.714	-1.344	-35.67
Cn1ccnc1CN1CCC2(CC(=O)N(c3ccccn3)C2)C1 (configuration not stated)	5	0	1.261	-
CCS(=O)(=O)N1CCc2c(COCc3ccncc3)cncc2C1	0.9091	-9.524	-0.241	14.29
COc1ccc(COCC(O)CSc2ccc(NC(C)=O)cc2)cc1 (configuration not stated)	4.167	7.292	3.742	4.028
CCOCC(=O)Nc1ccc(-n2ccc(C(N)=O)n2)cc1	10.99	3.012	1.138	10.87
Cn1ccnc1C(=O)N1C[C@@H]2CCN(c3cnccn3)C[C@@H]2C1	20	5.155	9.381	-
Cc1ccc(CN2C[C@@H]3COC[C@@H](CC(=O)N4CCOCC4)[C@@H]3C2)s1	20.51	4.878	3.16	-
CC(C)(C)Nc1c(C2CCN(C(=O)C3CC3)CC2)nc2ccccn12	11.27	6.061	-1.019	-7.014
O=C(Cc1cccnc1)N1CCCC2(CCN(C3CCOCC3)C2)C1.O=C(O)C(F)(F)F.O=C(O)C(F)(F)F (configuration not stated)	-	-	-	-3.711
O=C(O)C(F)(F)F.[H][C@@]12CCCO[C@]1([H])[C@H](N(C)C)CN2C(=O)Cc1ccc(F)cc1	-	-	-	13.96
CCc1cnc(CN(C)C2CCN(CCn3cc(C#N)cn3)C2)o1 (configuration not stated)	14.04	-2.006	-1.942	-4.713
CC(=O)N(Cc1ncc(C(C)C)o1)C1CCN(Cc2nccn2C)C1 (configuration not stated)	21.54	-7.28	2.641	11.95
[H][C@]12CC[C@@]3(N=C(C)N(CC)C3=O)[C@@]1([H])CN(C(=O)NCC(C)C)C2	-	-	-	11.3
CN(C)CCNC(=O)[C@H]1C[C@H]2CN(c3ncccn3)C[C@H]2N1C	21.05	3.448	-2.829	-
Cc1nc(N)cc(C2(C)CCCNC2)n1 (configuration not stated)	6.993	0	-0.04889	6.432
CCN(CCC(F)(F)F)C(=O)Nc1cccc(N2CCOCC2)c1	34.62	-2.5	-0.09251	29.55
CCS(=O)(=O)N1CCC2(CC1)CN(Cc1ccccn1)C(=O)CO2.O=C(O)C(F)(F)F	-	-	-	6.918
O=c1c(S(=O)(=O)N2CCCCC2)cccn1Cc1ccccc1Cl	15.05	5.699	-0.6143	11.01
Cc1cc(CN(C2CC2)C(C)C(C)C)on1 (configuration not stated)	8	4.819	5.115	12.3
CN(C)C(=O)CCCNc1ncc2c(n1)CCN2c1ccccc1	34.43	16.28	3.971	-2.788
Cc1ccc2oc(N3CCN(CC(=O)NC(C)C)CC3)nc2c1	17.14	0	-5.778	1.264
CSC1=Nc2c(cnn2-c2cccc(Cl)c2)C2=NCCCN12	11.03	7.692	1.261	15.86
CCc1ccc(NC(=O)C(C)Nc2cccc3c2OCCO3)cc1 (configuration not stated)	27.43	7.522	2.062	19.65
[H][C@@]12CS(=O)(=O)C[C@]1([H])N(C(=O)CSc1ccccn1)CCN2C(=O)C1CC1	-	-	-	-38.18
CC(C)c1nc(CN2CCN(Cc3ccccn3)CC2)cs1	9.917	3.361	8.067	10.83
CC(c1ccccn1)N(C)C(=O)CN1CCN(c2ccccn2)CC1 (configuration not stated)	0	6.024	0.5575	43.31
Cc1nc(CN2CCCN(C(=O)c3ccccn3)CC2)oc1C	13.33	1.132	-1.017	-12.85
Cn1cc(N2CC3(CCN(Cc4ccsc4)CC3)OCC2=O)cn1	1.818	4.132	3.58	-
O=C(O)C(F)(F)F.O=C(O)C(F)(F)F.O=C(O)C(F)(F)F.[H][C@]12C[C@@H](C(=O)NCC3CC3)N(C)[C@@]1([H])CN(Cc1cccnc1OC)C2	-	-	-	7.136

Some entries from above, unchanged:

{"structure": "Cc1cc(C)cc(OCCCn2nc3ccccn3c2=O)c1", "LiHisRS": 18.68, "TcHisRS": 9.278, "PfKRS1": 1.426, "Leishmania in macrophages": 15.11}
{"structure": "CC(C)(C)Nc1c(C2CCN(C(=O)C3CC3)CC2)nc2ccccn12", "LiHisRS": 11.27, "TcHisRS": 6.061, "PfKRS1": -1.019, "Leishmania in macrophages": -7.014}
{"structure": "CC(C)C(=O)N1CCCC2(CCCN2Cc2cccnc2)C1", "stereo": "configuration not stated", "LiHisRS": 5.263, "TcHisRS": 8.046, "PfKRS1": 4.54, "Leishmania in macrophages": 9.192}
{"structure": "Cn1cc(N2CC3(CCN(Cc4ccsc4)CC3)OCC2=O)cn1", "LiHisRS": 1.818, "TcHisRS": 4.132, "PfKRS1": 3.58}
{"structure": "O=C(O)C(F)(F)F.O=C(O)C(F)(F)F.[H][C@]12OCCC[C@]1([H])N(C(=O)c1cccc(C)n1)C[C@H]2OCc1cccnc1", "Leishmania in macrophages": 22.57}